# Primary screen of a compound library

Amino acid sequences for entries named in this document (tags omitted). Residues count along the entry.
UniProt P9WPC5, whole entry: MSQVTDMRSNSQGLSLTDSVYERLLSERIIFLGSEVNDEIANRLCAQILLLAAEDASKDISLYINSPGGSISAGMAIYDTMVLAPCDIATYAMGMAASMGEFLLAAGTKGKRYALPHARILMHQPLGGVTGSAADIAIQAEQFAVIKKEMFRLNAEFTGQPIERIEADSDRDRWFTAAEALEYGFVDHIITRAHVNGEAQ
UniProt P9WPC3, whole entry partner: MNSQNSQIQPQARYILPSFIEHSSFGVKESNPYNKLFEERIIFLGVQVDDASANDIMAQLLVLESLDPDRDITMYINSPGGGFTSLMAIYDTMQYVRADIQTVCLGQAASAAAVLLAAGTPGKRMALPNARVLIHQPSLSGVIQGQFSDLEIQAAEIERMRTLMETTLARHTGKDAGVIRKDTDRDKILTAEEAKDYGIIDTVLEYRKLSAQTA
UniProt Q4DA54, 1-478: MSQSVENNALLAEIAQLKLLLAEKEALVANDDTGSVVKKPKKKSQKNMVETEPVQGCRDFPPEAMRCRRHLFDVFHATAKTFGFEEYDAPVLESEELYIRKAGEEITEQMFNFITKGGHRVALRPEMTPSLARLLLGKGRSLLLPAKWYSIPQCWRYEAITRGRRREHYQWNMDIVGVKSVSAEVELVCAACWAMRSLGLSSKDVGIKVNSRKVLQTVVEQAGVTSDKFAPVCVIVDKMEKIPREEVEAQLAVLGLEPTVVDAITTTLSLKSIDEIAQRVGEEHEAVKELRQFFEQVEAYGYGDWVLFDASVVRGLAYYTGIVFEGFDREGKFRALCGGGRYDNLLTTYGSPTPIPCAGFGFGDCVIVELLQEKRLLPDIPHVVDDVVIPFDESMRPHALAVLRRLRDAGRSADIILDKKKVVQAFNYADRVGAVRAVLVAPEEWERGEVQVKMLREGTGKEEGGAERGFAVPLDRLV
UniProt Q8IDJ8, 1-583: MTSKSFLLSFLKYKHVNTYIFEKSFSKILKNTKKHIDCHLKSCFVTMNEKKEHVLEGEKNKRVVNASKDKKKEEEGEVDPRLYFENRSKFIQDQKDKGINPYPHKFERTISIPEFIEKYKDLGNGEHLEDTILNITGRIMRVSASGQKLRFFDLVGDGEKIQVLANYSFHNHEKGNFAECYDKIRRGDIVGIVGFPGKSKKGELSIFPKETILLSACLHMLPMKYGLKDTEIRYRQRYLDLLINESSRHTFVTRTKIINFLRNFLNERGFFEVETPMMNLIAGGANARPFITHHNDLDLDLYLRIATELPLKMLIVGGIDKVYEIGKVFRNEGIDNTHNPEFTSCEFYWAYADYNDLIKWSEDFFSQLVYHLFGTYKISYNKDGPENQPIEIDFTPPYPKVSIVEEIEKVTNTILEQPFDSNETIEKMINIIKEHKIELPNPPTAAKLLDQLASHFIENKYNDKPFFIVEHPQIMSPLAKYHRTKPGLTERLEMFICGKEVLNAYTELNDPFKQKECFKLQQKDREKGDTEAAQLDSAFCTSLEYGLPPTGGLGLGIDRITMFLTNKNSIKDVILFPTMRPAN
UniProt I6X8D2, whole entry: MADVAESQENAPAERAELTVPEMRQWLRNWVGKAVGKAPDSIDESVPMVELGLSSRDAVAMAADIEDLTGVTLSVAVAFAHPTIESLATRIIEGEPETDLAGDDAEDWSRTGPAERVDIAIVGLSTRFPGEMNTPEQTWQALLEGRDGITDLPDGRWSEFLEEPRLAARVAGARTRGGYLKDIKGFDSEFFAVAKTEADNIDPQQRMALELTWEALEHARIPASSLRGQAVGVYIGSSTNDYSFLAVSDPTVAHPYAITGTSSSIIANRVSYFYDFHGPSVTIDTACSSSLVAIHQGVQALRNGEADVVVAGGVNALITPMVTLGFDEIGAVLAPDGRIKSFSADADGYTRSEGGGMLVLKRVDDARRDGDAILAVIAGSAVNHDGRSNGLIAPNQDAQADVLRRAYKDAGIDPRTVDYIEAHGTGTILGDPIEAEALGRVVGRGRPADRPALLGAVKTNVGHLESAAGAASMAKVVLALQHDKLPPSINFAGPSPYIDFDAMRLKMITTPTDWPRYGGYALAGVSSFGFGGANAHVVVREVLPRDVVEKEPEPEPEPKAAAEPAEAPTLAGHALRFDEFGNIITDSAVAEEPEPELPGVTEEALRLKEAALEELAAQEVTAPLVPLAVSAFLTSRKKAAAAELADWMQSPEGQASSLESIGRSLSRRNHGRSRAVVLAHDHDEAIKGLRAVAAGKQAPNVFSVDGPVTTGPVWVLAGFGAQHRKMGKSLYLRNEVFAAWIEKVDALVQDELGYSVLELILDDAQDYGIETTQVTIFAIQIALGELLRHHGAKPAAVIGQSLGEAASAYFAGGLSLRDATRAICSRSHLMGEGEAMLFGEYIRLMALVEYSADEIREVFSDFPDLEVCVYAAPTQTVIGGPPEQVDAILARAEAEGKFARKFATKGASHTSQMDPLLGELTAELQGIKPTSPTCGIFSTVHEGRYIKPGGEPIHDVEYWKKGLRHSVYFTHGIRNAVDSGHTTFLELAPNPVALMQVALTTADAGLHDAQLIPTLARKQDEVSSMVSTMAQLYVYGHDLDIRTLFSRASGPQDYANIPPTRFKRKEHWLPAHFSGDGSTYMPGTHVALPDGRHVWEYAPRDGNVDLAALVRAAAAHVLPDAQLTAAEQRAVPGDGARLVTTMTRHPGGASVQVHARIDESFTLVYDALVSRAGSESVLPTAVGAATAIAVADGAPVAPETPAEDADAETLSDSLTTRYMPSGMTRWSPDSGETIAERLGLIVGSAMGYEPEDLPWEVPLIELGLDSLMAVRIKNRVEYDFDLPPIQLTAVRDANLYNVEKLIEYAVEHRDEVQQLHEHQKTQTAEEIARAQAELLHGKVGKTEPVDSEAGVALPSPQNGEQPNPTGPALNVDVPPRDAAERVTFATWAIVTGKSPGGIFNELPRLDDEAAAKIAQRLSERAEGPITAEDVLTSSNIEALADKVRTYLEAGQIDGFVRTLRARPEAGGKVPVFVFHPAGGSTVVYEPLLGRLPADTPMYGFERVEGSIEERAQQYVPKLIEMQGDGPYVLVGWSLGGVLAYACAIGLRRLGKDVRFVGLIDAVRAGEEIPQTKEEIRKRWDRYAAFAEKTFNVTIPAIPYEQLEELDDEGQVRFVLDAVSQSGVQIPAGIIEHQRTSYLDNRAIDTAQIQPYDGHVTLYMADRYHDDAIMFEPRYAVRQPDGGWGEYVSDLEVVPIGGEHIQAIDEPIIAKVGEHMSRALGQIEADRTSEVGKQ

From ChEMBL document CHEMBL3988442, “University of Dundee, Small-Polar-MMV Screening Library” (2021).

Each number is a percent effect as filed.
How 0% and 100% were set is not recorded. Most values in the screen are low, and negative values occur.
Compounds were drawn at random from those tested, without regard to their results.
A dash means the value is not listed here; it may have been measured.

ClpP1P2: 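ClpP1P2, Mycobacterium tuberculosis (UniProt P9WPC5 and UniProt P9WPC3). Protease assay of ClpP1P2, read by the AMC dye that it sets free. Compounds at 50 µM. Direction is inferred from only a few compounds that gave an IC50; most scored high, so higher reads as stronger inhibition. Most other retested compounds had strongly negative values. Size under these conditions: about 69,000 compounds, about 10 of them at 50% or above in at least one test.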
TcHisRS: 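Enzyme assay of histidyl-tRNA synthetase; the read-out is not stated. Target: Histidine-tRNA ligase, Trypanosoma cruzi CL Brener (UniProt Q4DA54). Concentration: 30 µM. Higher reads as stronger inhibition (inferred: compounds with an IC50 in retests scored well above the rest). About 69,000 compounds were tested under these conditions; 0.045% (about 31) showed 50% or more at least once.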
PfKRS1: 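Lysine-tRNA ligase, Plasmodium falciparum 3D7 (UniProt Q8IDJ8). Enzyme assay of the cytosolic lysyl-tRNA synthetase in 384-well plates, read by luminescence. Concentration: 30 µM. Direction is inferred from only a few compounds that gave an IC50; most scored high, so higher reads as stronger inhibition. Size under these conditions: about 69,000 compounds, about 49 of them at 50% or above in at least one test.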
Pks13 thioesterase: 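Enzyme assay of the thioesterase domain of polyketide synthase 13; the read-out is not stated. Target: Polyketide synthase Pks13, Mycobacterium tuberculosis (UniProt I6X8D2). Concentration: 30 µM. Higher reads as stronger inhibition (inferred from which compounds were picked for retests). Of about 67,000 compounds tested this way, about 300 (0.46%) reached 50% or more in at least one test.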

Compound	ClpP1P2	TcHisRS	PfKRS1	Pks13 thioesterase
OC(CN1CCN(CC2CCCCC2)CC1)c1ccccc1 (stereo unspecified)	-4.733%	0%	-1.822%	11.87%
O=C(Cc1cccs1)N1C[C@@H]2OCCN(CC3CCCO3)[C@@H]2C1 (stereo partly specified)	-6.027%	0.8264%	-1.727%	-10.25%
COc1ccccc1[C@@H]1CN(Cc2nccn2C)C[C@H]1C(=O)O	-7.777%	8.466%	4.946%	-13.96%
O=C1CC[C@H]2[C@H](CCN2C(=O)C2CCOC2)N1Cc1ccncc1 (stereo partly specified)	0.2412%	8.537%	3.112%	-3.09%
CNC(=O)[C@H]1C[C@@H]2CN(S(=O)(=O)c3ccc(C)c(F)c3)C[C@@H]2N1C	-10.12%	8.824%	1.744%	-2.898%
O=C1CC(c2ccc(Cl)c(Cl)c2)c2c(n3ccsc3nc2=O)N1 (stereo unspecified)	-12.1%	6.433%	-0.194%	3.801%
Brc1ccc(CN2CCC(NCc3ncc[nH]3)CC2)cc1	-8.128%	4.762%	2.832%	-28.95%
CN(CCCc1cc(-c2ccc(F)cc2)n[nH]1)C(=O)CCn1cncn1	-3.523%	3.226%	4.425%	5.419%
O=C1C(Nc2ccc3nccnc3n2)CCN1c1ccccc1 (stereo unspecified)	-76.39%	-0.8403%	-1.724%	-24.28%
O=C(NCCN1CCOCC1)c1ccc(-c2ccc(F)cc2)nc1O	-19.86%	3.804%	1.007%	31.75%
COc1ccc(-n2ccc(C(=O)NCCN3CCCC(C)C3)n2)cc1 (stereo unspecified)	17.21%	0%	-1.098%	-0.8597%
c1ccc(C2CCCCN2Cc2nc(-c3cnccn3)no2)nc1 (stereo unspecified)	-7.956%	3.261%	-0.3437%	-24.2%
COc1ccc(-c2n[nH]cc2CN(C)CCC2CCOCC2)cc1F	-23.84%	-0.9662%	-0.01155%	3.662%
CCC1CN(CC(=O)NCCN2CCCCC2)c2ccccc2S1 (stereo unspecified)	-11%	5.941%	5.975%	0.2562%
CCc1nc(CNc2ccc(-c3nc(C4CC4)no3)cn2)no1	6.421%	1.935%	4.863%	-9.911%
COC(=O)c1ccc2ccn(CC3CCCN(C)C3)c(=O)c2c1 (stereo unspecified)	-17.06%	-4.523%	-2.733%	8.536%
Cc1csc(N2CCCN(c3cc(C)nc(C)c3C#N)CC2)n1	-6.023%	11.67%	0.3839%	-
CCN1CC2(CCC1=O)CCN(C(=O)c1ccc(Cl)cc1O)CC2	-4.167%	1.626%	2.545%	1.249%
Cc1ccc(-c2nc(CN3C[C@@H](C)NC[C@@H]3C)c(C)o2)s1	-2.895%	3.017%	3.333%	-48.12%
CCCN(CC(=O)OC)S(=O)(=O)c1cnc2c(c1)c(C)nn2C	4.735%	4.046%	6.004%	-26.79%
CCOC1CCCN(C(=O)c2[nH]nc(C3CC3)c2Br)C1 (stereo unspecified)	-0.5521%	2.062%	-2.888%	-26.86%
CC1CN(C(=O)NCCc2nc(C(C)C)no2)CCO1 (stereo unspecified)	4.765%	8.173%	-1.362%	6.288%
COc1nc2c(cc1C(=O)NCc1noc(Cc3cccs3)n1)CCC2	-28.41%	8.235%	10.86%	17.91%
FC(F)(F)COCCN1CCN(c2ccc3nncn3n2)CC1	2.222%	4.58%	3.768%	-3.937%
Clc1ccc(CN2CCCCC2Cn2cncn2)c2ncccc12 (stereo unspecified)	-38.62%	24.78%	0.3335%	-6.293%
CC(=O)N1[C@H](Cn2cncn2)C[C@@H]2CN(C(=O)c3ccoc3)CC[C@@H]21	11.95%	3.883%	2.69%	-38.5%
Fc1ccc2nc([C@H]3CCNC3)[nH]c2c1	-3.224%	-2.488%	5.251%	-
Cc1nn(C)c(C)c1C1CCCN1CCOc1ccccc1C#N (stereo unspecified)	-12.25%	1.02%	0.1466%	0.7196%
CC(C)N1CCCC(Cc2cncc(Br)c2)CC1 (stereo unspecified)	-3.391%	4.444%	1.426%	25.04%
Cn1cnc2c1CCN(Cc1csc(-c3ccco3)n1)C2	-19.95%	8.504%	-0.4618%	-16.92%
O=C(Nc1cc(C(F)(F)F)c[nH]c1=O)C1CCCO1 (stereo unspecified)	2.216%	11.88%	10.82%	-7.982%
O=C(c1ccccc1F)N(CCCO)S(=O)(=O)c1cccs1	-12.06%	1.02%	1.624%	-36.82%
CC1CN(c2ncnc3c2cnn3C)CCN1c1nccs1 (stereo unspecified)	-2.615%	4.02%	-0.9319%	0.4762%
CC(=O)N1CCC(N2CCOC[C@H]2c2nc(-c3cccnc3)c[nH]2)CC1	-11.37%	7.609%	-3.808%	25.71%
CN1CC(C(=O)NCCc2ccc(Br)cc2F)CC1=O (stereo unspecified)	-15.28%	4.478%	1.72%	-7.432%
Cc1nc(O)c2nnn(C[C@H]3CCCN3C(=O)c3cccc(F)c3)c2n1	5.247%	4.865%	7.395%	-36.99%
CCCS(=O)(=O)NCc1nc(C)cc(N2CCCC2)n1	-3.113%	11.11%	4.025%	-6.509%
O=C(NCc1ccncc1)c1ccc(Cl)cc1F	4.169%	3.333%	-3.425%	3.099%
CNC(=O)N1CCCCC1CCNS(C)(=O)=O (stereo unspecified)	-7.162%	1.026%	-0.2251%	-5.699%
CCN(CC)Cc1nc2c(o1)CN(C(=O)c1ccc3ncccc3c1)C2	-8.358%	6.952%	1.049%	-10.2%
CC(C)Oc1ccc(CN)c(C(F)(F)F)c1	4.425%	2.212%	4.655%	3.227%
CCc1nc(CN2CCN(C(=O)C3(C#N)CCCC3)CC2)cs1	-6.962%	3.509%	-0.6195%	-1.503%
COCc1noc(-c2nn(-c3ccccc3F)c3c2CCC3)n1	-1.435%	0.6494%	2.398%	-13.44%
Cc1nc(CCNC(=O)NCc2ccc(N(C)C)nc2)cs1	8.495%	1.504%	4.407%	-0.8614%
CNS(=O)(=O)CCCn1nnc(-c2ccc(F)c(C)c2)n1	-5.922%	3.061%	0.8261%	5.719%
CN(C(=O)CSc1ncc[nH]1)C1CC1	-10.83%	5.051%	-0.352%	-5.026%
O=C(c1ccncc1F)N1Cc2nc(COCC3CC3)oc2C1	4.536%	12.37%	2.202%	-10.84%
CN1[C@H](CN2CCCC2)C[C@@H]2CN(C(=O)Cc3cccs3)CC[C@@H]21	18.27%	6.015%	-1.397%	-3.974%
CCC(C)NC(=O)Nc1cccc(OC)c1 (stereo unspecified)	6.099%	2.762%	3.847%	-30.45%
CC(Cn1cccn1)NC(=O)CCC(=O)c1cccs1 (stereo unspecified)	-8.634%	2.825%	0.04695%	-18.88%
Cn1ccnc1CN1CCc2ncnc(N3CCCC3)c2CC1	10.12%	2.454%	3.682%	-13.09%
CCCn1ncc(C(=O)N(Cc2cccnc2)C[C@@H]2CCC(=O)N2)c1C	-0.7224%	3.947%	3.926%	-26.5%
C=C(C)CN(CC)Cc1nc(C2CC2)no1	-4.754%	-0.5405%	0.5788%	-32.18%
CN(C)C(=O)c1cccnc1-c1ccc2c(c1)OCCO2	6.055%	1.136%	-3.441%	-
O=S(=O)(Cc1c(F)cccc1F)NCCOc1cccnc1	-9.146%	2.924%	-1.746%	-23.04%
Cc1noc([C@]23COC[C@H]2CN(C(=O)C2CCOCC2)C3)n1	-17.34%	2.488%	0.5718%	-25.06%
COc1cccc(C(=O)NC(CC(=O)O)c2cccs2)c1OC (stereo unspecified)	6.925%	0.5634%	3.666%	-0.4968%
COCCc1noc(CN2CCCC2Cn2nc(C)nc2C)n1 (stereo unspecified)	15.43%	-0.2865%	-5.909%	-15.77%
CSc1ccccc1C(=O)NCc1cc2n(n1)CCCN(CC(C)C)C2	9.124%	-3.279%	-11.36%	-25.97%
Cc1ccc(CN(CCCN2CCOCC2)Cc2[nH]cnc2C)o1	-3.573%	4.563%	2.112%	-3.014%
CC(NCc1ccc(-c2ccc(F)cc2)o1)c1nnc2n1CCC2 (stereo unspecified)	8.019%	6.522%	8.318%	-12.87%
O=C(NCC1CCC2(CCNCC2)CO1)c1cnccn1 (stereo unspecified)	16.45%	3.226%	1.003%	-19.4%
COc1ccc(S(=O)(=O)NCCCc2ccc(N(C)C)cc2)cc1Cl	11.87%	5.155%	1.528%	4.458%
c1ccc(CNc2nc(N3CCOCC3)nc3nccnc23)cc1	-1.496%	10.42%	3.316%	-8.206%
Cc1nc2cc(C(=O)N(CCN(C)C)CCN(C)C)ccc2n1C	-5.028%	2.89%	1.774%	-1.551%
Cc1nn(C)c(C)c1C1CCCN1c1ncnc2c1CCC2 (stereo unspecified)	-0.3332%	1.604%	-0.6444%	-14.4%
Cn1cnc2c1CCN(CCCS(=O)(=O)c1ccccc1)C2	4.485%	5.65%	-2.019%	-1.367%
CCC1CCCCN1Cc1ncc(-c2ccc(OC)cc2)o1 (stereo unspecified)	2.227%	6.061%	3.485%	-16.07%

Once more, the final 7:

Result for O=C(NCC1CCC2(CCNCC2)CO1)c1cnccn1 (stereo unspecified) was ClpP1P2: 16.45%; TcHisRS: 3.226%; PfKRS1: 1.003%; Pks13 thioesterase: -19.4%.
Result for COc1ccc(S(=O)(=O)NCCCc2ccc(N(C)C)cc2)cc1Cl was ClpP1P2: 11.87%; TcHisRS: 5.155%; PfKRS1: 1.528%; Pks13 thioesterase: 4.458%.
Result for c1ccc(CNc2nc(N3CCOCC3)nc3nccnc23)cc1 was ClpP1P2: -1.496%; TcHisRS: 10.42%; PfKRS1: 3.316%; Pks13 thioesterase: -8.206%.
Result for Cc1nc2cc(C(=O)N(CCN(C)C)CCN(C)C)ccc2n1C was ClpP1P2: -5.028%; TcHisRS: 2.89%; PfKRS1: 1.774%; Pks13 thioesterase: -1.551%.
Result for Cc1nn(C)c(C)c1C1CCCN1c1ncnc2c1CCC2 (stereo unspecified) was ClpP1P2: -0.3332%; TcHisRS: 1.604%; PfKRS1: -0.6444%; Pks13 thioesterase: -14.4%.
Result for Cn1cnc2c1CCN(CCCS(=O)(=O)c1ccccc1)C2 was ClpP1P2: 4.485%; TcHisRS: 5.65%; PfKRS1: -2.019%; Pks13 thioesterase: -1.367%.
Result for CCC1CCCCN1Cc1ncc(-c2ccc(OC)cc2)o1 (stereo unspecified) was ClpP1P2: 2.227%; TcHisRS: 6.061%; PfKRS1: 3.485%; Pks13 thioesterase: -16.07%.